Laboratory results from PubChem BioAssay AID248 (DTP/NCI, 2004).
The list is a part of this screen's results and no random one: it gathers tests that were run many times, whatever their T/C, doses with no T/C, and many T/C values between a quarter and a half above the control. Other doses and runs of a compound stand elsewhere. T/C gives the treated animals as a percentage of the vehicle group. Some doses have a count of surviving animals in place of a T/C: the source holds a T/C of zero for them, seemingly a mark for toxic or unscored doses. Some survivor counts are full or nearly so, which does not show that the dose was tolerated: survival well below the control is almost never listed, so the zero probably covers shortened survival too. Counts of survivors are from the toxicity check (mostly the fifth day) where no day follows; animals may have died later. Schedules are NCI's codes, taken here to give the interval after Q, in days (D) or hours (H), and the number of doses after X. Some molecules as drawn cover several salts, stereoisomers or complexes of the source; a dose is that of the sample tested. Signs of the kind (2×) give the number of equal values in this list. Some schedules carry Z or #; the key to these is not given. Where survival is the endpoint, the PubChem record calls one and a half times the control and up active, and a quarter to a half above the control has no call in these data; cut-offs in other NCI protocols can differ.

System: L1210 leukemia ip in BDF1 mice, survival T/C
Experiment: NCI In Vivo Anticancer Drug Screen. Data for tumor model L1210 Leukemia (intraperitoneal) in B6D2F1 (BDF1) mice
Conditions: T/C endpoint: mean survival time, higher T/C = longer survival
[1] = dose: 100.0 mg/kg/injection, schedule: Q04DX003 (ip), vehicle: saline with Tween-80
[2] = dose: 400.0 mg/kg/injection, schedule: Q04DX002 (ip), vehicle: saline
[3] = dose: 400.0 mg/kg/injection, schedule: Q04DX002 (ip), vehicle: Klucel (hydroxypropylcellulose) (HPC)
[4] = dose: 200.0 mg/kg/injection, schedule: Q04DX003 (ip), vehicle: saline with Tween-80
[5] = dose: 400.0 mg/kg/injection, schedule: Q04DX003 (ip), vehicle: saline with Tween-80
[6] = dose: 400.0 mg/kg/injection, schedule: Q01DX009 (ip), vehicle: Klucel (hydroxypropylcellulose) (HPC)
[7] = dose: 100.0 mg/kg/injection, schedule: Q04DX002 (ip), vehicle: Klucel (hydroxypropylcellulose) (HPC)
[8] = dose: 200.0 mg/kg/injection, schedule: Q04DX002 (ip), vehicle: Klucel (hydroxypropylcellulose) (HPC)
[9] = dose: 400.0 mg/kg/injection, schedule: Q01DX001 (ip), vehicle: acetone
[10] = dose: 400.0 mg/kg/injection, schedule: Q04DX003 (ip), vehicle: Klucel (hydroxypropylcellulose) (HPC)

## CC1(C)N=C(N)N=C(N)N1c1ccc(OCCCc2ccccc2)c(N)c1
[1]
  survivor count: 3 of 6

## CC[CH2][Sn]([CH2]CC)([CH2]CC)[CH2]Cc1ccncc1
dose: 100.0 mg/kg/injection, schedule: Q04DX002 (ip), vehicle: saline with Tween-80
  survivor count: 0 of 3
dose: 200.0 mg/kg/injection, schedule: Q04DX002 (ip), vehicle: saline with Tween-80
  survivor count: 0 of 3
dose: 400.0 mg/kg/injection, schedule: Q04DX002 (ip), vehicle: saline with Tween-80
  survivor count: 0 of 3

## CC1CC/C(=N\N(C)C)c2ccccc21 (centres undefined)
dose: 200.0 mg/kg/injection, schedule: Q01DX009 (ip), vehicle: saline with Tween-80
  survivor count: 4 of 6
dose: 400.0 mg/kg/injection, schedule: Q01DX009 (ip), vehicle: saline with Tween-80
  survivor count: 0 of 6

## NC(=O)c1ccc(N)nc1
dose: 50.0 mg/kg/injection, schedule: Q01DX001 (ip), vehicle: carboxymethylcellulose (CMC)
  T/C: 132 % of control
dose: 200.0 mg/kg/injection, schedule: Q01DX001 (ip), vehicle: carboxymethylcellulose (CMC)
  survivor count: 1 of 4

## O=C(O)c1cccnc1C(=O)O.[Cu+2]
dose: 12.5 mg/kg/injection, schedule: Q01DX009 (ip), vehicle: Klucel (hydroxypropylcellulose) (HPC)
  survivor count: 2 of 6
dose: 25.0 mg/kg/injection, schedule: Q01DX009 (ip), vehicle: Klucel (hydroxypropylcellulose) (HPC)
  survivor count: 3 of 6
dose: 25.0 mg/kg/injection, schedule: Q04DX003 (ip), vehicle: Klucel (hydroxypropylcellulose) (HPC)
  survivor count: 1 of 6
dose: 50.0 mg/kg/injection, schedule: Q01DX001 (ip), vehicle: other
  survivor count: 0 of 6
dose: 100.0 mg/kg/injection, schedule: Q01DX001 (ip), vehicle: Klucel (hydroxypropylcellulose) (HPC)
  survivor count: 0 of 6 (2×)
dose: 200.0 mg/kg/injection, schedule: Q01DX001 (ip), vehicle: Klucel (hydroxypropylcellulose) (HPC)
  survivor count: 1 of 6 (2×)
dose: 400.0 mg/kg/injection, schedule: Q01DX001 (ip), vehicle: Klucel (hydroxypropylcellulose) (HPC)
  survivor count: 0 of 6 (2×)

## C=C1CC(CCCCCC2CC(=C)C(=O)O2)OC1=O (centres undefined)
dose: 100.0 mg/kg/injection, schedule: Q04DX002 (ip), vehicle: saline
  survivor count: 3 of 3
dose: 200.0 mg/kg/injection, schedule: Q04DX002 (ip), vehicle: saline
  survivor count: 3 of 3
[2]
  survivor count: 2 of 3

## O=C1OC(CN2CCOCC2)CN1/N=C/c1ccc([N+](=O)[O-])o1 (centres undefined)
[3]
  survivor count: 1 of 3
[2]
  survivor count: 2 of 3

## CN(C)c1ccc(/C=C\c2cc(/C=C/c3ccc(N(C)C)cc3)c([N+](=O)[O-])cc2[N+](=O)[O-])cc1
dose: 150.0 mg/kg/injection, schedule: Q01DX001 (ip), vehicle: saline
  survivor count: 6 of 6

## CCCCCCCNc1ccc(S(=O)(=O)c2ccc(NCCCCCCC)c([N+](=O)[O-])c2)cc1[N+](=O)[O-]
dose: 200.0 mg/kg/injection, schedule: Q01DX005 (ip), vehicle: DMSO
  survivor count: 3 of 3

## N#CN=C([S-])[S-].N#CN=C([S-])[S-].[Cu]
[1]
  survivor count: 0 of 6
[4]
  survivor count: 0 of 6
[5]
  survivor count: 0 of 6

## CC(C)C(=O)[O][Sn]([CH2]c1ccccc1)([CH2]c1ccccc1)[CH2]c1ccccc1
[4]
  survivor count: 3 of 6
[5]
  survivor count: 0 of 6

## CCC(CO)NC(=O)C1C=C2c3cccc4c3c(cn4C)CC2N(C)C1 (centres undefined)
[6]
  survivor count: 3 of 6

## CC(=O)Nc1ccc(Cc2ccc(Cl)cc2)cc1
dose: 400.0 mg/kg/injection, schedule: Q01DX001 (ip), vehicle: saline
  survivor count: 0 of 6

## C#CC1(N2CCCCC2)CCCCC1
[3]
  survivor count: 1 of 3

## CC12CC3CC(C)(C1)CC(SC(=N)N)(C3)C2
[7]
  survivor count: 0 of 3
[8]
  survivor count: 0 of 3
[3]
  survivor count: 0 of 3

## CC1CN(C(C)C)C1
[9]
  survivor count: 0 of 6

## CN(N(P(N)(Cl)(c1ccccc1)c1ccccc1)P(N)(Cl)(c1ccccc1)c1ccccc1)P(N)(Cl)(c1ccccc1)c1ccccc1
dose: 400.0 mg/kg/injection, schedule: Q01DX001 (ip), vehicle: steroid suspending solution
  survivor count: 1 of 4

## O=C(O)C1C2OC(C(Br)C2Br)C1C(=O)O (centres undefined)
[5]
  survivor count: 4 of 6

## CCCCNC(=S)NCCCN(C)C
[10]
  survivor count: 3 of 6

## O=C(NCCCl)Nc1ccc2c(c1)CCC2
[10]
  survivor count: 6 of 6

## CC1(NCCOC(=O)c2ccc(N)cc2)CCCCC1
dose: 300.0 mg/kg/injection, schedule: Q01DX001 (ip), vehicle: saline
  survivor count: 1 of 6

## C=C[C+](CCCC)C(=O)[O-]
dose: 200.0 mg/kg/injection, schedule: Q04DX003 (ip), vehicle: saline
  survivor count: 2 of 6
dose: 335.0 mg/kg/injection, schedule: Q01DX009 (ip), vehicle: saline
  survivor count: 0 of 6
[9]
  survivor count: 0 of 6

## BrCc1cc(CBr)c(CBr)cc1CBr
dose: 12.5 mg/kg/injection, schedule: Q04DX003 (ip), vehicle: saline
  survivor count: 6 of 6
dose: 25.0 mg/kg/injection, schedule: Q01DX009 (ip), vehicle: acetone
  survivor count: 3 of 6
dose: 50.0 mg/kg/injection, schedule: Q01DX009 (ip), vehicle: acetone
  survivor count: 0 of 6
dose: 50.0 mg/kg/injection, schedule: Q04DX003 (ip), vehicle: saline
  survivor count: 0 of 6
dose: 75.0 mg/kg/injection, schedule: Q04DX003 (ip), vehicle: saline
  survivor count: 1 of 6
dose: 100.0 mg/kg/injection, schedule: Q01DX001 (ip), vehicle: acetone
  survivor count: 0 of 6
dose: 115.0 mg/kg/injection, schedule: Q04DX003 (ip), vehicle: saline
  survivor count: 1 of 6
dose: 170.0 mg/kg/injection, schedule: Q04DX003 (ip), vehicle: saline
  survivor count: 0 of 6
dose: 200.0 mg/kg/injection, schedule: Q01DX001 (ip), vehicle: acetone
  survivor count: 1 of 6
[9]
  survivor count: 0 of 6

## CC12CC3CC(C)(C1)CC(CN=C(N)CS)(C3)C2
dose: 10.0 mg/kg/injection, schedule: Q04DX002 (ip), vehicle: Klucel (hydroxypropylcellulose) (HPC)
  survivor count: 1 of 3
dose: 20.0 mg/kg/injection, schedule: Q04DX002 (ip), vehicle: Klucel (hydroxypropylcellulose) (HPC)
  survivor count: 3 of 3
dose: 40.0 mg/kg/injection, schedule: Q04DX002 (ip), vehicle: Klucel (hydroxypropylcellulose) (HPC)
  survivor count: 1 of 3
[7]
  survivor count: 0 of 3
[8]
  survivor count: 0 of 3
[3]
  survivor count: 0 of 3

## COc1nc(=S)nc(OC)[nH]1
dose: 200.0 mg/kg/injection, schedule: Q01DX Z (ip), vehicle: methylcellulose (MC)
  survivor count: 2 of 6

## C/C=C\C=N\NC(=O)CCCCCCCCCCC
dose: 200.0 mg/kg/injection, schedule: Q01DX009 (ip), vehicle: Klucel (hydroxypropylcellulose) (HPC)
  survivor count: 6 of 6
[6]
  survivor count: 0 of 6

## C=C(C)CC(Cc1ccccc1)NCC1CC1 (centres undefined)
dose: 100.0 mg/kg/injection, schedule: Q04DX003 (ip), vehicle: Klucel (hydroxypropylcellulose) (HPC)
  survivor count: 3 of 6
dose: 200.0 mg/kg/injection, schedule: Q04DX003 (ip), vehicle: Klucel (hydroxypropylcellulose) (HPC)
  survivor count: 0 of 6
[10]
  survivor count: 0 of 6

## CC(N)C12CC3CC(CC(C3)C1)C2 (centres undefined)
dose: 150.0 mg/kg/injection, schedule: Q01DX009 (ip), vehicle: saline
  survivor count: 0 of 6
dose: 300.0 mg/kg/injection, schedule: Q01DX009 (ip), vehicle: saline
  survivor count: 0 of 6

## CNc1c2c(nc3ccccc13)CCCC2
[1]
  survivor count: 0 of 6
[4]
  survivor count: 0 of 6
[5]
  survivor count: 0 of 6
